Experimental data taken from PMC10969620.
Results are given in words; binding and its absence hold for the method and conditions named. For some assays here: In cells and extracts the contact can be indirect. Some entries that bind do so weakly or less than the wild type. Where a sequence is shown, tags or fusion partners need not be part of it.

Chains of the proteins cited; added tags and fusions are not shown. Residues count along the entry.
UniProt P28908, residues 19-385: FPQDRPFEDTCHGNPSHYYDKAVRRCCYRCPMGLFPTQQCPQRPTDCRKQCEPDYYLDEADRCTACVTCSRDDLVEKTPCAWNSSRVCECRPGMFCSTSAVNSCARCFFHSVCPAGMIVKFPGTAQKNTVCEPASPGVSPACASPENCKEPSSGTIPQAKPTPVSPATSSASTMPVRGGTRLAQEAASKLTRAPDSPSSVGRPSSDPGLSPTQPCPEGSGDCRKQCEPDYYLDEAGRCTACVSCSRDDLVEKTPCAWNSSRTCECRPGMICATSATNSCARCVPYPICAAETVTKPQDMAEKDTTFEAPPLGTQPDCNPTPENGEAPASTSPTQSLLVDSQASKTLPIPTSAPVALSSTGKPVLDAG

How the values were obtained:
[1] = biological target: CD30-Fc recombinant protein (UniProt P28908); assay: plate-based binding assay (Meso Scale electrochemiluminescence); CD30-Fc coated on the wells; serum-free supernatants of HEK cells transfected with Iso1 with or without Iso2-FLAG; detection by Iso1-specific anti-CD30L or anti-FLAG; only the target purified
[2] = biological target: CD30-Fc recombinant protein (UniProt P28908); assay: pull-down; lysates of HEK cells transfected with 0, 625 or 2500 ng Iso1 plasmid with or without 2500 ng Iso2-FLAG plasmid, incubated 1 h with 5 ug CD30-Fc, then protein A/G beads; 8 washes in lysis buffer (1% Triton, 20 mM Tris pH 7.4, 100 mM NaCl); Western blot with pan-anti-CD30L and anti-FLAG; only the target purified

B1: untagged CD30 ligand isoform 1 (ligand, UniProt P32971 1-234)
chain: MDPGLQQALNGMAPPGDTAMHVPAGSVASHLGTTSRSYFYLTTATLALCLVFTVATIMVLVVQRTDSIPNSPDNVPLKGGNCSEDLLCILKRAPFKKSWAYLQVAKHLNKTKLSWNKDGILHGVRYQDGNLVIQFPGLYFIICQLQFLVQCPNNSVDLKLELLINKHIKKQALVTVCESGMQTKHVYQNLSQFLLDYLQVNTTISVNVDTFQYIDTSTFPLENVLSIFLYSNSD
binding [1]: binds | binding [2]: binds
